From PMC11734925
No constants are given. Whether binding was seen depends on the method and setting. In cells and extracts the contact can be indirect. Sequences can lack the tags named with a protein.

Target: T1, GFP-Piwi (D. melanogaster) (UniProt Q9VKM1)
T1 sequence: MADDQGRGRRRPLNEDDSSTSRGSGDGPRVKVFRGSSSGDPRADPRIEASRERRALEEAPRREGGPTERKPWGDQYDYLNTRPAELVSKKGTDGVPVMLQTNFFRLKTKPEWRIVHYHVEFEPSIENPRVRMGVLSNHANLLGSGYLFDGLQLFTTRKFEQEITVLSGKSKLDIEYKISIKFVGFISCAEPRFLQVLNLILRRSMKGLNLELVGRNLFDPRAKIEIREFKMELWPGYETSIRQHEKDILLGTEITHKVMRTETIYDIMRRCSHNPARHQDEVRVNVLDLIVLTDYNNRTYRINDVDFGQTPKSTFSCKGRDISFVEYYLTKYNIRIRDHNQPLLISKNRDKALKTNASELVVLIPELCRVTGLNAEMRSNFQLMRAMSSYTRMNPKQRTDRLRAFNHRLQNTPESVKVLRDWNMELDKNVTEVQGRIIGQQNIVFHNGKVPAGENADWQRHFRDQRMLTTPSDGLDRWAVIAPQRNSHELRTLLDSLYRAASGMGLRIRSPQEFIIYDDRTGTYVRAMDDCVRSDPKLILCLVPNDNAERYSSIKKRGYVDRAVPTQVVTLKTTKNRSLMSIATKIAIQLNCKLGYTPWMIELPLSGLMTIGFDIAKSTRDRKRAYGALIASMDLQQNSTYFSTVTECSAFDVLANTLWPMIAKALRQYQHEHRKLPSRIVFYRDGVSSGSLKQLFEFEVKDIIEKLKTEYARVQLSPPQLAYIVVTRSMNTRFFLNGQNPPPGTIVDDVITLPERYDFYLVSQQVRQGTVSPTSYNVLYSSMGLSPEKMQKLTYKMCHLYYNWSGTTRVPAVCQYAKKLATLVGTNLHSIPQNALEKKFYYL
Experiment: co-IP; GFP-Piwi precipitated with anti-GFP nanobody beads from embryo lysate (about 970 μg at 2 mg/ml), 90 min at 4°C; washes with 450 mM NaCl; blot with anti-GFP and anti-D1; NLS-GFP embryos as control

B1: D1 (protein, UniProt P22058 1-355)
chain: MEEVAVKKRGRPSKASVGGKSSTAAVAAISPGIKKRGRPAKNKGSSGGGGQRGRPPKASKIQNDEDPEDEGEEDGDGDGSGAELANNSSPSPTKGRGRPKSSGGAGSGSGDSVKTPGSAKKRKAGRPKKHQPSDSENEDDQDEDDDGNSSIEERRPVGRPSAGSVNLNISRTGRGLGRPKKRAVESNGDGEPQVPKKRGRPPQNKSGSGGSTGYVPTGRPRGRPKANAAPVEKHEDNDDDQDDENSGEEEHSSPEKTVVAPKKRGRPSLAAGKVSKEETTKPRSRPAKNIDDDADDADSADQGQHNSKKESNDEDRAVDGTPTKGDGLKWNSDGENDANDGYVSDNYNDSESVAA
Question: B1 was tested. Which binding did it give?
Answer: no binding
